Measurements reported in PubChem BioAssay AID1259308 (NCATS, 2017)
Purpose: 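Candidate targets for better recombinant protein yield in mammalian cells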 (primary screen). System: human HEK293 embryonic kidney cells stably expressing firefly luciferase (HEK-CMV-Luc2-Hygro). Knock-down reagent: single siRNA against human genes, 0.8 pmol siRNA per well. Timing: 72 h. Read-out: 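Luciferase light (ONE-Glo) measured on one replicate plate set and viability (CellTiter-Glo) on the other, scaled to a negative control siRNA, with robust z-scores and luciferase per cell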. Scale: total luciferase, z-score: higher = more reporter protein produced. Call rule: 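Active when the median/MAD z-score for overall luciferase is greater than 3; a gene was taken forward for validation with new siRNAs if at least two of its three siRNAs passed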. Meaning of the calls: active = raised luciferase; inactive = no rise.
This is one part, drawn at random, of about 59,000 deposited reagents. Over the whole deposit, about 1,510 (2.6%) were called active. 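Calls use total luciferase alone and ignore viability, so some active siRNAs may act by altering cell number.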 The numbers tell different reagents against one gene apart. Further read-outs or replicates are left out here.

POLR2E (RNA polymerase II, I and III subunit E) #1 → total luciferase, z-score: -2.55; Outcome: inactive
POLR2E (RNA polymerase II, I and III subunit E) #2 → total luciferase, z-score: -2.63; Outcome: inactive
POLR2E (RNA polymerase II, I and III subunit E) #3 → total luciferase, z-score: -1.56; Outcome: inactive
ZNF892 (zinc finger protein 892) #1 → total luciferase, z-score: 0.935; Outcome: inactive
ZNF892 (zinc finger protein 892) #2 → total luciferase, z-score: 2.19; Outcome: inactive
ZNF892 (zinc finger protein 892) #3 → total luciferase, z-score: 2.57; Outcome: inactive

Individual results from above.
For “total luciferase, z-score”, ZNF892 (zinc finger protein 892) #1 shows 0.935
For “total luciferase, z-score”, POLR2E (RNA polymerase II, I and III subunit E) #1 shows -2.55

The listing continues:
RPL29P23 (ribosomal protein L29 pseudogene 23) #1 → total luciferase, z-score: -1.7; Outcome: inactive
RPL29P23 (ribosomal protein L29 pseudogene 23) #2 → total luciferase, z-score: -0.482; Outcome: inactive
RPL29P23 (ribosomal protein L29 pseudogene 23) #3 → total luciferase, z-score: -0.274; Outcome: inactive
GPHA2 (glycoprotein hormone subunit alpha 2) #1 → total luciferase, z-score: 3.49; Outcome: active
GPHA2 (glycoprotein hormone subunit alpha 2) #2 → total luciferase, z-score: 0.189; Outcome: inactive
GPHA2 (glycoprotein hormone subunit alpha 2) #3 → total luciferase, z-score: -2.23; Outcome: inactive
